Laboratory results reported in article PMC12649483, “Novel Chalcone Derivatives as Anti-Leishmania infantum Agents with Potential Synergistic Activity and In Silico Insights” (Antibiotics, 2025).

What was measured:
[1] = test system: L. infantum promastigotes; assay: In vitro leishmanicidal activity (MTT) in promastigote forms; assay type: cell-based, Leishmania infantum; conditions: CC50 (PBMCs) / IC50 promastigotes
Description: (§1) Promastigote forms of L. infantum [IOC/L0579 (MHOM/BR/1974/PP75)] were cultured in Schneider’s medium (pH 7.0), supplemented with 20% fetal bovine serum (FBS), 1% human male urine, and 1% antibiotic solution (penicillin 200 U/mL and streptomycin 0.1 mg/mL), and maintained at 26 ± 1 °C (B.O.D SL 200—SOLAB, Piracicaba, SP, BR). The generation of extracellular axenic amastigote forms of L. infantum was based on protocols previously described by Debrabant et al. (2004), with modifications that included the use of Schneider’s medium adjusted to pH 5.5 and incubation at 37 °C (CO2 Series 3517-2, Cornelius, OR, USA).
The antileishmanial activity of compounds against metacyclic promastigote populations was assessed using the MTT (ACROS, Livingston, NJ, USA) assay for cell viability analysis. […]
In 96-well plates, initial screening was performed with serial dilutions (400 to 3.12 μM) of compounds 3a–c and 4a–c in duplicate. […] Following 72 h-treatment of promastigotes and 24 h-treatment of amastigotes (accounting for the stationary phase culture characteristics), MTT was added for 4 h, followed by overnight incubation with sodium dodecyl sulfate (SDS) for spectrophotometric (Biotek model ELx800, Winooski, VT, USA) reading at 540 nm.

[2] = test system: L. infantum axenic amastigotes; assay: In vitro leishmanicidal activity (MTT) in axenic amastigote forms; assay type: cell-based, Leishmania infantum; conditions: CC50 (PBMCs) / IC50 amastigotes
Description: as §1
In 96-well plates, initial screening was performed with serial dilutions (400 to 3.12 μM) of compounds 3a–c and 4a–c in duplicate. […] AmB was used as a positive control due to its established leishmanicidal activity, tested at concentrations ranging from 10 to 0.078 μM. Following 72 h-treatment of promastigotes and 24 h-treatment of amastigotes (accounting for the stationary phase culture characteristics), MTT was added for 4 h, followed by overnight incubation with sodium dodecyl sulfate (SDS) for spectrophotometric (Biotek model ELx800, Winooski, VT, USA) reading at 540 nm.

| Compound | SI (promastigotes) [1] | SI (amastigotes) [2] |
| --- | --- | --- |
| Cc1ccc(C(=O)/C=C/c2ccc(OCC(=O)NC3CCCCC3)cc2)cc1 [Compound 4a, (E)-N-Cyclohexyl-2-(4-(3-oxo-3-p-tolylprop-1-enyl)phenoxy)acetamide] | 12.2 | 8 |
| COc1ccc(C(=O)/C=C/c2ccc(OCC(=O)NC3CCCCC3)cc2)cc1 [Compound 4b, (E)-N-Cyclohexyl-2-(4-(3-(4-methoxyphenyl)-3-oxoprop-1-enyl)phenoxy)acetamide] | 72 | 148.6 |
